Source: patent publication US12729225B2, “Non-canonical SWI/SNF complex and uses thereof” (Dana-Farber Cancer Institute, Inc., priority 2018, dated 2026)

Tested on: mSWI/SNF complexes
Experiment: mSWI/SNF complex purification with HA-tagged baits and mass spectrometry (peptide counts)
Design: species or system human
Settings: 293_HA-BRD7 bait purification, mass spectrometry; for Total: total peptides per co-purified protein; for Unique: unique peptides per co-purified protein

| Molecule | Total | Unique |
| --- | --- | --- |
| PCBP2 (protein, UniProt Q15366 1-365, looked up) Poly(rC)-binding protein 2: MDTGVIEGGLNVTLTIRLLMHGKEVGSIIGKKGESVKKMREESGARINISEGNCPERIITLAGPTNAIFKAFAMIIDKLEEDISSSMTNSTAASRPPVTLRLVVPASQCGSLIGKGGCKIKEIRESTGAQVQVAGDMLPNSTERAITIAGIPQSIIECVKQICVVMLETLSQSPPKGVTIPYRPKPSSSPVIFAGGQDRYSTGSDSASFPHTTPSMCLNPDLEGPPLEAYTIQGQYAIPQPDLTKLHQLAMQQSHFPMTHGNTGFSGIESSSPEVKGYWGLDASAQTTSHELTIPNDLIGCIIGRQGAKINEIRQMSGAQIKIANPVEGSTDRQVTITGSAASISLAQYLINVRLSSETGGMGSS | 2 | 2 |
| HELLS (protein, UniProt Q9NRZ9 1-838, looked up) Lymphoid-specific helicase: MPAERPAGSGGSEAPAMVEQLDTAVITPAMLEEEEQLEAAGLERERKMLEKARMSWDRESTEIRYRRLQHLLEKSNIYSKFLLTKMEQQQLEEQKKKEKLERKKESLKVKKGKNSIDASEEKPVMRKKRGREDESYNISEVMSKEEILSVAKKNKKENEDENSSSTNLCVEDLQKNKDSNSIIKDRLSETVRQNTKFFFDPVRKCNGQPVPFQQPKHFTGGVMRWYQVEGMEWLRMLWENGINGILADEMGLGKTVQCIATIALMIQRGVPGPFLVCGPLSTLPNWMAEFKRFTPDIPTMLYHGTQEERQKLVRNIYKRKGTLQIHPVVITSFEIAMRDRNALQHCYWKYLIVDEGHRIKNMKCRLIRELKRFNADNKLLLTGTPLQNNLSELWSLLNFLLPDVFDDLKSFESWFDITSLSETAEDIIAKEREQNVLHMLHQILTPFLLRRLKSDVALEVPPKREVVVYAPLSKKQEIFYTAIVNRTIANMFGSSEKETIELSPTGRPKRRTRKSINYSKIDDFPNELEKLISQIQPEVDRERAVVEVNIPVESEVNLKLQNIMMLLRKCCNHPYLIEYPIDPVTQEFKIDEELVTNSGKFLILDRMLPELKKRGHKVLLFSQMTSMLDILMDYCHLRDFNFSRLDGSMSYSEREKNMHSFNTDPEVFIFLVSTRAGGLGINLTAADTVIIYDSDWNPQSDLQAQDRCHRIGQTKPVVVYRLVTANTIDQKIVERAAAKRKLEKLIIHKNHFKGGQSGLNLSKNFLDPKELMELLKSRDYEREIKGSREKVISDKDLELLLDRSDLIDQMNASGPIKEKMGIFKILENSEDSSPECLF | 2 | 2 |
| TRA2A (protein, UniProt Q13595 2-282, looked up) Transformer-2 protein homolog …: SDVEENNFEGRESRSQSKSPTGTPARVKSESRSGSRSPSRVSKHSESHSRSRSKSRSRSRRHSHRRYTRSRSHSHSHRRRSRSRSYTPEYRRRRSRSHSPMSNRRRHTGSRANPDPNTCLGVFGLSLYTTERDLREVFSRYGPLSGVNVVYDQRTGRSRGFAFVYFERIDDSKEAMERANGMELDGRRIRVDYSITKRAHTPTPGIYMGRPTHSGGGGGGGGGGGGGGGGRRRDSYYDRGYDRGYDRYEDYDYRYRRRSPSPYYSRYRSRSRSRSYSPRRY | 2 | 2 |
| MTHFD1 (protein, UniProt P11586 1-935, looked up) C-1-tetrahydrofolate …: MAPAEILNGKEISAQIRARLKNQVTQLKEQVPGFTPRLAILQVGNRDDSNLYINVKLKAAEEIGIKATHIKLPRTTTESEVMKYITSLNEDSTVHGFLVQLPLDSENSINTEEVINAIAPEKDVDGLTSINAGKLARGDLNDCFIPCTPKGCLELIKETGVPIAGRHAVVVGRSKIVGAPMHDLLLWNNATVTTCHSKTAHLDEEVNKGDILVVATGQPEMVKGEWIKPGAIVIDCGINYVPDDKKPNGRKVVGDVAYDEAKERASFITPVPGGVGPMTVAMLMQSTVESAKRFLEKFKPGKWMIQYNNLNLKTPVPSDIDISRSCKPKPIGKLAREIGLLSEEVELYGETKAKVLLSALERLKHRPDGKYVVVTGITPTPLGEGKSTTTIGLVQALGAHLYQNVFACVRQPSQGPTFGIKGGAAGGGYSQVIPMEEFNLHLTGDIHAITAANNLVAAAIDARIFHELTQTDKALFNRLVPSVNGVRRFSDIQIRRLKRLGIEKTDPTTLTDEEINRFARLDIDPETITWQRVLDTNDRFLRKITIGQAPTEKGHTRTAQFDISVASEIMAVLALTTSLEDMRERLGKMVVASSKKGEPVSAEDLGVSGALTVLMKDAIKPNLMQTLEGTPVFVHAGPFANIAHGNSSIIADRIALKLVGPEGFVVTEAGFGADIGMEKFFNIKCRYSGLCPHVVVLVATVRALKMHGGGPTVTAGLPLPKAYIQENLELVEKGFSNLKKQIENARMFGIPVVVAVNAFKTDTESELDLISRLSREHGAFDAVKCTHWAEGGKGALALAQAVQRAAQAPSSFQLLYDLKLPVEDKIRIIAQKIYGADDIELLPEAQHKAEVYTKQGFGNLPICMAKTHLSLSHNPEQKGVPTGFILPIRDIRASVGAGFLYPLVGTMSTMPGLPTRPCFYDIDLDPETEQVNGLF | 2 | 2 |
| CPSF3 (protein, UniProt Q9UKF6 2-684, looked up) Cleavage and polyadenylation …: SAIPAEESDQLLIRPLGAGQEVGRSCIILEFKGRKIMLDCGIHPGLEGMDALPYIDLIDPAEIDLLLISHFHLDHCGALPWFLQKTSFKGRTFMTHATKAIYRWLLSDYVKVSNISADDMLYTETDLEESMDKIETINFHEVKEVAGIKFWCYHAGHVLGAAMFMIEIAGVKLLYTGDFSRQEDRHLMAAEIPNIKPDILIIESTYGTHIHEKREEREARFCNTVHDIVNRGGRGLIPVFALGRAQELLLILDEYWQNHPELHDIPIYYASSLAKKCMAVYQTYVNAMNDKIRKQININNPFVFKHISNLKSMDHFDDIGPSVVMASPGMMQSGLSRELFESWCTDKRNGVIIAGYCVEGTLAKHIMSEPEEITTMSGQKLPLKMSVDYISFSAHTDYQQTSEFIRALKPPHVILVHGEQNEMARLKAALIREYEDNDEVHIEVHNPRNTEAVTLNFRGEKLAKVMGFLADKKPEQGQRVSGILVKRNFNYHILSPCDLSNYTDLAMSTVKQTQAIPYTGPFNLLCYQLQKLTGDVEELEIQEKPALKVFKNITVIQEPGMVVLEWLANPSNDMYADTVTTVILEVQSNPKIRKGAVQKVSKKLEMHVYSKRLEIMLQDIFGEDCVSVKDDSILSVTVDGKTANLNLETRTVECEEGSEDDESLREMVELAAQRLYEALTPVH | 2 | 2 |
| AKAP17A (protein, UniProt Q02040 1-695, looked up) A-kinase anchor protein 17A: MAAATIVHDTSEAVELCPAYGLYLKPITKMTISVALPQLKQPGKSISNWEVMERLKGMVQNHQFSTLRISKSTMDFIRFEGEVENKSLVKSFLACLDGKTIKLSGFSDILKVRAAEFKIDFPTRHDWDSFFRDAKDMNETLPGERPDTIHLEGLPCKWFALKESGSEKPSEDVLVKVFEKFGEIRNVDIPMLDPYREEMTGRNFHTFSFGGHLNFEAYVQYREYMGFIQAMSALRGMKLMYKGEDGKAVACNIKVSFDSTKHLSDASIKKRQLERQKLQELEQQREEQKRREKEAEERQRAEERKQKELEELERERKREEKLRKREQKQRDRELRRNQKKLEKLQAEEQKQLQEKIKLEERKLLLAQRNLQSIRLIAELLSRAKAVKLREQEQKEEKLRLQQQEERRRLQEAELRRVEEEKERALGLQRKERELRERLLSILLSKKPDDSHTHDELGVAHADLLQPVLDILQTVSSGCVSATTLHPLGGQPPAGAPKESPAHPEADGAPKSVNGSVAEEAPCKEVQSSCRVVPEDGSPEKRCPGGVLSCIPDNNQQPKGIPACEQNVSRKDTRSEQDKCNREPSKGRGRATGDGLADRHKRERSRARRASSREDGRPRKERRPHKKHAYKDDSPRRRSTSPDHTRSRRSHSKDRHRRERSRERRGSASRKHSRHRRRSERSRSRSPSRHRSTWNR | 2 | 2 |
| APMAP (protein, UniProt Q9HDC9 2-416, looked up) Adipocyte plasma …: SEADGLRQRRPLRPQVVTDDDGQAPEAKDGSSFSGRVFRVTFLMLAVSLTVPLLGAMMLLESPIDPQPLSFKEPPLLLGVLHPNTKLRQAERLFENQLVGPESIAHIGDVMFTGTADGRVVKLENGEIETIARFGSGPCKTRDDEPVCGRPLGIRAGPNGTLFVADAYKGLFEVNPWKREVKLLLSSETPIEGKNMSFVNDLTVTQDGRKIYFTDSSSKWQRRDYLLLVMEGTDDGRLLEYDTVTREVKVLLDQLRFPNGVQLSPAEDFVLVAETTMARIRRVYVSGLMKGGADLFVENMPGFPDNIRPSSSGGYWVGMSTIRPNPGFSMLDFLSERPWIKRMIFKLFSQETVMKFVPRYSLVLELSDSGAFRRSLHDPDGLVATYISEVHEHDGHLYLGSFRSPFLCRLSLQAV | 2 | 2 |
| RBM23 (protein, UniProt Q86U06 1-439, looked up) Probable RNA-binding protein …: MASDDFDIVIEAMLEAPYKKEEDEQQRKEVKKDYPSNTTSSTSNSGNETSGSSTIGETSKKKRSRSHNKSRDRKRSRSRDRDRYRRRNSRSRSPGRQCRHRSRSWDRRHGSESRSRDHRREDRVHYRSPPLATGYRYGHSKSPHFREKSPVREPVDNLSPEERDARTVFCMQLAARIRPRDLEDFFSAVGKVRDVRIISDRNSRRSKGIAYVEFCEIQSVPLAIGLTGQRLLGVPIIVQASQAEKNRLAAMANNLQKGNGGPMRLYVGSLHFNITEDMLRGIFEPFGKIDNIVLMKDSDTGRSKGYGFITFSDSECARRALEQLNGFELAGRPMRVGHVTERLDGGTDITFPDGDQELDLGSAGGRFQLMAKLAEGAGIQLPSTAAAAAAAAAQAAALQLNGAVPLGALNPAALTALSPALNLASQCFQLSSLFTPQTM | 2 | 2 |
| DARS2 (protein, UniProt Q6PI48 48-645, looked up) Aspartate--tRNA ligase, …: VVRTNTCGELRSSHLGQEVTLCGWIQYRRQNTFLVLRDFDGLVQVIIPQDESAASVKKILCEAPVESVVQVSGTVISRPAGQENPKMPTGEIEIKVKTAELLNACKKLPFEIKNFVKKTEALRLQYRYLDLRSFQMQYNLRLRSQMVMKMREYLCNLHGFVDIETPTLFKRTPGGAKEFLVPSREPGKFYSLPQSPQQFKQLLMVGGLDRYFQVARCYRDEGSRPDRQPEFTQIDIEMSFVDQTGIQSLIEGLLQYSWPNDKDPVVVPFPTMTFAEVLATYGTDKPDTRFGMKIIDISDVFRNTEIGFLQDALSKPHGTVKAICIPEGAKYLKRKDIESIRNFAADHFNQEILPVFLNANRNWNSPVANFIMESQRLELIRLMETQEEDVVLLTAGEHNKACSLLGKLRLECADLLETRGVVLRDPTLFSFLWVVDFPLFLPKEENPRELESAHHPFTAPHPSDIHLLYTEPKKARSQHYDLVLNGNEIGGGSIRIHNAELQRYILATLLKEDVKMLSHLLQALDYGAPPHGGIALGLDRLICLVTGSPSIRDVIAFPKSFRGHDLMSNTPDSVPPEELKPYHIRVSKPTDSKAERAH | 2 | 2 |
| SLC25A22 (protein, UniProt Q9H936 1-323, looked up) Mitochondrial glutamate …: MADKQISLPAKLINGGIAGLIGVTCVFPIDLAKTRLQNQQNGQRVYTSMSDCLIKTVRSEGYFGMYRGAAVNLTLVTPEKAIKLAANDFFRHQLSKDGQKLTLLKEMLAGCGAGTCQVIVTTPMEMLKIQLQDAGRIAAQRKILAAQGQLSAQGGAQPSVEAPAAPRPTATQLTRDLLRSRGIAGLYKGLGATLLRDVPFSVVYFPLFANLNQLGRPASEEKSPFYVSFLAGCVAGSAAAVAVNPCDVVKTRLQSLQRGVNEDTYSGILDCARKILRHEGPSAFLKGAYCRALVIAPLFGIAQVVYFLGIAESLLGLLQDPQA | 2 | 2 |
